Source: PubChem BioAssay
For some of these results: Shown are results outside the selection of hits, which stands elsewhere. Results filed as inconclusive are left out. Some structures have more than one record in an assay (separate samples or runs), and their calls can disagree. For some of these results: This list holds what a sample rich in lowest values left over. For some of these results: What follows is the remainder of the data, with few or none of the strong results. The list shows a part of the results, in another mix than the full data. The source made the active and inactive calls.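 Rule for the calls, unless noted: active = normalized viability below 100% at a tested concentration; inactive = the rest.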

Chains of the proteins cited; added tags and fusions are not shown.
UniProt P04637, whole entry, looked up: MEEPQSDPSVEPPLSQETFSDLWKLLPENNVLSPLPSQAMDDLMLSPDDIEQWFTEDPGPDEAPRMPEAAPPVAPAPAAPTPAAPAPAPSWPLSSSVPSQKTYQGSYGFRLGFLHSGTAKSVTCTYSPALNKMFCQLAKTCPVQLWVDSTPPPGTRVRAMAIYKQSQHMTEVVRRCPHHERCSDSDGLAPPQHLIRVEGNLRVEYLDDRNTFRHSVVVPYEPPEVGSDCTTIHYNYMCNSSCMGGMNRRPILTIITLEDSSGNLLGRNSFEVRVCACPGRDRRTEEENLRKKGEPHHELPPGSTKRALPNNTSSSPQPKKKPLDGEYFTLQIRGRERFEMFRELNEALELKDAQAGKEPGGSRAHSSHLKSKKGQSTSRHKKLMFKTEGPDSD

Experiments:
[1] = target: Cellular tumor antigen p53 (Homo sapiens) (UniProt P04637); assay: kinase inhibitors altering GFP-p53 stability in HPV16-positive cells, imaging, known kinase inhibitor set, EGFP/DsRed ratio (AID 1053116; call rule not given here;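 note: cells exposed to compounds for 24 h at 37 °C before reading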); settings: stronger effect = higher value; EGFP object count: measured here: GFP-p53 positive objects count
[2] = tested on: Aerobactin synthetase IucA (Klebsiella pneumoniae); assay: IucA aerobactin synthetase inhibitors, biochemical, Tocris library, absorbance (AID 1345561; call rule not given here;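 note: 100% = enzyme without compound and 0% = no enzyme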); settings: purified IucA enzyme assay, absorbance (OD) read-out; stronger effect = lower value;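 tested at 8 µM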
[3] = phospholipid biosynthesis inhibitors in animal cells, primary screen, cell-based, LOPAC library, screen 4 (AID 1347384; call rule not given here); settings: phospholipid biosynthesis inhibition screen, at 10 µM
[4] = polyglutamine-triggered caspase-3 activation inhibitors, cell-based (AID 1583); settings: polyglutamine-induced caspase-3 activation, cell assay; stronger effect = higher value;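 tested at 10 µM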
[5] = inhibitors of mitochondrial cytochrome c release, biochemical, purified mitochondria (AID 1603); settings: stronger effect = lower value;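 note: mouse liver mitochondria challenged with calcium chloride; signal normalized to the plate average as 100%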
[6] = inhibitors of polyQ protein aggregation (AID 1604); settings: polyglutamine-induced protein aggregation inhibition assay; stronger effect = higher value; tested at 2.5 µM
[7] = growth inhibition of DIPG glioma cells, dose response, cell-based, SU-DIPG-XIII, MIPE4.0, CellTiter-Glo, qHTS (AID 1347061; cut-off not given, nearly all actives have AC50 up to about 37 µM;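 note: cells exposed to compound for 48 hours before readout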); settings: SU-DIPG-XIII viability, CellTiter-Glo ATP luminescence
[8] = growth inhibition of DIPG glioma cells, dose response, cell-based, JHH-DIPG-1, MIPE4.0, CellTiter-Glo, qHTS (AID 1347062; cut-off not given, nearly all actives have AC50 up to about 27 µM); settings: JHH-DIPG-1 viability, CellTiter-Glo ATP luminescence
[9] = growth inhibition of DIPG glioma cells, dose response, cell-based, SU-DIPG-IV, MIPE4.0, CellTiter-Glo, qHTS (AID 1347063; cut-off not given, nearly all actives have AC50 up to about 30 µM;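 note: compound exposure lasted 48 hours before the viability readout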); settings: SU-DIPG-IV viability, CellTiter-Glo ATP luminescence
[10] = SU-DIPG-VI glioma cell viability, MIPE4.0 library, CellTiter-Glo luminescence, qHTS (AID 1347066; cut-off not given, nearly all actives have AC50 up to about 30 µM;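 note: cells exposed to compound for 48 hours before readout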); settings: CellTiter-Glo ATP luminescence
[11] = ovarian cancer cell viability with rucaparib, profiling panel, oncology-focused library, rucaparib conditional (AID 1508598); settings: patient-derived ovarian cancer cells, CellTiter-Glo viability, 144 h, stronger effect = lower value

## COc1ccccc1Oc1nccc(-c2c(-c3ccc(F)cc3)ncn2C2CCNCC2)n1
[1]
  EGFP object count: 5
  EGFP/DsRed ratio: inactive: 0.16

## O=C1NC(=O)C(c2cccc([N+](=O)[O-])c2)=C1Nc1cc(Cl)c(O)c(Cl)c1
[1]
  EGFP object count: 0
  EGFP/DsRed ratio: inactive: 0

## O=C1NC(=O)c2c1c(-c1ccccc1)cc1[nH]c3ccc(O)cc3c21
[2]
  remaining activity: inactive: 125%
[3]
  outcome: inactive

## Cc1cccc(Oc2nccc(-c3c(-c4ccc(F)cc4)ncn3C3CCNCC3)n2)c1C
[1]
  EGFP object count: 5
  EGFP/DsRed ratio: inactive: 0.062

## CN1C2CC[C@H]1CC(OC(=O)C(O)c1ccccc1)C2 (stereo partly drawn)
[4]
  inhibition: 0.52%
[5]
  cytochrome c release ratio: 1.14
[6]
  inhibition of aggregation: -2.44%

## O=C1NC(=O)C(c2ccccc2)=C1Nc1ccccc1
[1]
  EGFP object count: 4
  EGFP/DsRed ratio: inactive: 0.0591

## COC(=O)[C@H](CCCN=C(N)N)NS(=O)(=O)c1ccc(C)cc1
[7]
  outcome: inactive
[8]
  outcome: inactive
[9]
  outcome: inactive
[10]
  outcome: inactive
[11]; at 0.000305 µM, OCI-C5x cells, with rucaparib 10 µM, 100% = cells with rucaparib alone
  viability: inactive: 106%
[11]; at 0.000305 µM, OCI-C5x cells, without rucaparib
  viability: inactive: 139%
[11]; at 0.000305 µM, OCI-P5x cells, with rucaparib 20 µM, 100% = cells with rucaparib alone
  viability: inactive: 102%
[11]; at 0.000305 µM, OCI-P5x cells, without rucaparib
  viability: inactive: 115%
[11]; at 0.00122 µM, OCI-C5x cells, with rucaparib 10 µM, 100% = cells with rucaparib alone
  viability: inactive: 113%
[11]; at 0.00122 µM, OCI-C5x cells, without rucaparib
  viability: inactive: 128%
[11]; at 0.00122 µM, OCI-P5x cells, with rucaparib 20 µM, 100% = cells with rucaparib alone
  viability: inactive: 100%
[11]; at 0.00122 µM, OCI-P5x cells, without rucaparib
  viability: inactive: 109%
[11]; at 0.00488 µM, OCI-C5x cells, with rucaparib 10 µM, 100% = cells with rucaparib alone
  viability: inactive: 112%
[11]; at 0.00488 µM, OCI-C5x cells, without rucaparib
  viability: inactive: 129%
[11]; at 0.00488 µM, OCI-P5x cells, with rucaparib 20 µM, 100% = cells with rucaparib alone
  viability: active: 79.2%
[11]; at 0.00488 µM, OCI-P5x cells, without rucaparib
  viability: active: 96.7%
[11]; at 0.0195 µM, OCI-C5x cells, with rucaparib 10 µM, 100% = cells with rucaparib alone
  viability: inactive: 115%
[11]; at 0.0195 µM, OCI-C5x cells, without rucaparib
  viability: inactive: 140%
[11]; at 0.0195 µM, OCI-P5x cells, with rucaparib 20 µM, 100% = cells with rucaparib alone
  viability: active: 99.8%
[11]; at 0.0195 µM, OCI-P5x cells, without rucaparib
  viability: inactive: 117%
[11]; at 0.0781 µM, OCI-C5x cells, with rucaparib 10 µM, 100% = cells with rucaparib alone
  viability: inactive: 114%
[11]; at 0.0781 µM, OCI-C5x cells, without rucaparib
  viability: inactive: 141%
[11]; at 0.0781 µM, OCI-P5x cells, with rucaparib 20 µM, 100% = cells with rucaparib alone
  viability: inactive: 104%
[11]; at 0.0781 µM, OCI-P5x cells, without rucaparib
  viability: inactive: 114%
[11]; at 0.313 µM, OCI-C5x cells, with rucaparib 10 µM, 100% = cells with rucaparib alone
  viability: inactive: 110%
[11]; at 0.313 µM, OCI-C5x cells, without rucaparib
  viability: inactive: 129%
[11]; at 0.313 µM, OCI-P5x cells, with rucaparib 20 µM, 100% = cells with rucaparib alone
  viability: inactive: 106%
[11]; at 0.313 µM, OCI-P5x cells, without rucaparib
  viability: inactive: 117%
[11]; at 1.25 µM, OCI-C5x cells, with rucaparib 10 µM, 100% = cells with rucaparib alone
  viability: inactive: 120%
[11]; at 1.25 µM, OCI-C5x cells, without rucaparib
  viability: inactive: 136%
[11]; at 1.25 µM, OCI-P5x cells, with rucaparib 20 µM, 100% = cells with rucaparib alone
  viability: inactive: 106%
[11]; at 1.25 µM, OCI-P5x cells, without rucaparib
  viability: inactive: 122%
[11]; at 5 µM, OCI-C5x cells, with rucaparib 10 µM, 100% = cells with rucaparib alone
  viability: inactive: 103%
[11]; at 5 µM, OCI-C5x cells, without rucaparib
  viability: inactive: 136%
[11]; at 5 µM, OCI-P5x cells, with rucaparib 20 µM, 100% = cells with rucaparib alone
  viability: active: 98%
[11]; at 5 µM, OCI-P5x cells, without rucaparib
  viability: inactive: 120%

## Cc1ccccc1-n1c(Cn2nc(-c3cccc(O)c3)c3c(N)ncnc32)nc2cccc(C)c2c1=O
[7]
  outcome: inactive

## CS(=O)(=O)c1ccc(Oc2nccc(-c3c(-c4ccc(F)cc4)ncn3C3CCNCC3)n2)cc1
[1]
  EGFP object count: 4.5
  EGFP/DsRed ratio: inactive: 0.0478

## COc1ccccc1C1=C(Nc2ccccc2)C(=O)NC1=O
[1]
  EGFP object count: 1
  EGFP/DsRed ratio: inactive: 0.0172

## Fc1ccc(-c2ncn(C3CCNCC3)c2-c2ccnc(Oc3ccc(Cl)cc3)n2)cc1
[1]
  EGFP object count: 6
  EGFP/DsRed ratio: inactive: 0.272

## O=C1NC(=O)C(c2ccccc2Cl)=C1Nc1cc(Cl)c(O)c(Cl)c1
[1]
  EGFP object count: 4
  EGFP/DsRed ratio: inactive: 0.333
